Measurements taken from patent US10962528B2, “Blue fluorescent protein monomers and uses thereof” (WISYS TECHNOLOGY FOUNDATION, INC., priority 2015, dated 2021).

Assay: Size-exclusion chromatography, oligomerization state
Format: physicochemical

B1: Wild-type SFP: Sandercyanin fluorescent protein from walleye Sander vitreus mucus, biliverdin-binding lipocalin tetramer; SEQ ID NO:1 (recombinant SEQ ID NO:31) (protein, listed as Sander vitreus)
chain: MNAIQVISLTLLSVLAAKAMFIKPGRCPKPAVQEDFDAARYLGVWYDIQRLPNKFQKGECATATYSLSPGVGFSVFNRERLANGTIKSVIGSAIAEDPCEPAKLQFFHENAAPVPYWVLSTDYDNYALVYSCINLGASHAAYASIVSRQPTLPEETIKKLQGTMSSFGVGVDTLLTTNQDAAYCSAMAQ
modifications: biliverdin chromophore
oligomeric state in solution without biliverdin (apo form, in solution): monomer
oligomeric state in the presence of biliverdin (in the presence of BV): homotetramer
